Measured values: PubChem BioAssay AID2685 (National Center for Advancing Translational Sciences (NCATS), 2010)
Several values for one entry are separate records, joined by “and”; a condition that tells them apart may be missing. Equal values may be shown once. This is one part of the list. Further columns of the screen follow, without active or inactive calls. Compounds called inactive in the main read-out are mostly missing here. Potencies come from curve fits of mixed quality, noted in brackets.

Assay: qHTS Assay for Lipid Storage Modulators in Drosophila S3 Cells;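 for cell number change: cells counted by Cell Tracker Red CMTPX staining in the red channel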
Settings: BODIPY lipid droplet fluorescence, 18-24 h; for cell number change: measured here: cell count max response, cells fed with added oleic acid
Procedure, shortened: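 Drosophila S3 cells loaded with oleic acid (400 uM, as added) and compounds at several concentrations; lipid droplets imaged by 488-nm laser-scanning cytometry, 500–530 nm intensity and object ratio to cell channel. Percent activity normalized to 20 uM Triacsin C.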

[1] = measured here: lipid fluorescence (Fed channel) AC50, cells fed with added oleic acid
[2] = measured here: cell number channel AC50, cells fed with added oleic acid

Q: For O=C(Cc1ccccc1)Nc1nnc(-c2ccco2)o1, which cell number change is on record?
A: -5.13%

Q: With COc1cc(OC)cc(C(=O)NCCCn2ccnc2)c1 as the compound, how does the cell number change read?
A: -4.46%

Q: What about the AC50 [1] of the same compound?
A: 3.26 µM [rising, full curve, poor fit]

Q: With COc1ccc(S(=O)(=O)N2CCC(C(=O)NCC(c3cccs3)N(C)C)CC2)cc1 (stereo not drawn) as the compound, how does the cell number change read?
A: 1.44%

Q: For O=C(CSc1nc(=O)n2ccccc2n1)N1CCC(Cc2ccccc2)CC1, which cell number change is on record?
A: 6.6%

Q: And the AC50 [1]?
A: 0.103 µM [rising, full curve, poor fit]

Q: For CC1=C(C(=O)Nc2cc(-c3cccc(F)c3)[nH]n2)C2(CCCCC2)OC1=O, which cell number change is on record?
A: -38%

Q: What about the AC50 [2] of the same compound?
A: 25.9 µM [falling, single point]

Q: Which cell number change does the source give for Cc1cccc(-c2noc(CCCC(=O)Nc3cccnc3)n2)c1 here?
A: -4.31%

Q: For CCN(c1ccccc1)S(=O)(=O)c1ccc(C(=O)Nc2ncccc2C)cc1, which cell number change is on record?
A: 41.2%

Q: And the AC50 [2]?
A: 0.0259 µM [rising, full curve]

Q: And the AC50 [1]?
A: 0.0517 µM [rising, full curve, poor fit]

Q: What does the source list for CC(C)C(OC(=O)CCCC(=O)Nc1nccs1)C(=O)NC1CCCCC1 (stereo not drawn)?
A: cell number change: -11.2%; AC50 [1]: 29.1 µM [falling, single point]

Q: For O=C(Cc1ccccc1F)Nc1ccccc1N1CCCC1, which cell number change is on record?
A: 21.1%

Q: And the AC50 [1]?
A: 29.1 µM [rising, single point]

Q: For CCC(=O)Nc1cc(C(=O)OCC(=O)c2ccccc2Cl)ccc1C, which cell number change is on record?
A: -14.7%

Q: What about the AC50 [1] of the same compound?
A: 6.51 µM [falling, single point]

Q: With Cc1cc(C)cc(C(=O)NCC(=O)NCCc2c[nH]c3ccccc23)c1 as the compound, how does the cell number change read?
A: 18.4%

Q: What about the AC50 [1] of the same compound?
A: 35.5 µM [falling, partial curve, poor fit]

Q: What does the source list for CN(c1ccccc1)S(=O)(=O)c1cc(C(=O)OCC(N)=O)ccc1Cl?
A: cell number change: -47%; AC50 [1]: 29.1 µM [falling, single point]

Q: With COc1cc(-c2csc(NC3CCCCC3)n2)cc(OC)c1OC as the compound, how does the cell number change read?
A: 9.46%

Q: Which cell number change does the source give for CN(C)c1ccc(/C=C(\NC(=O)c2ccccc2)C(=O)NCCN2CCOCC2)cc1 here?
A: 9.24%

Q: And the AC50 [1]?
A: 0.206 µM [falling, single point]

Q: What does the source list for CCNC(=S)N1CCc2cc(OC)c(OC)cc2C1COc1ccc(F)cc1 (stereo not drawn)?
A: cell number change: -44.5%; AC50 [2]: 29.1 µM [falling, single point]

Q: For COc1ccccc1NC(=O)Nc1ccc(C)cn1, which cell number change is on record?
A: 10.5%

Q: What about the AC50 [1] of the same compound?
A: 0.58 µM [rising, single point]

Q: Which cell number change does the source give for CNC(=S)N1CCc2sccc2C1C (stereo not drawn) here?
A: -28.7%

Q: And the AC50 [1]?
A: 29.1 µM [falling, single point]

Q: With Cc1cc(C)c(C(=O)OCc2csc(CC(=O)Nc3ccccc3C)n2)c(C)c1 as the compound, how does the cell number change read?
A: -15.5%

Q: What about the AC50 [1] of the same compound?
A: 29.1 µM [falling, single point]

Q: Which cell number change does the source give for CCOC(=O)C(C)Sc1nnc(Cc2cc(=O)[nH]c(=O)[nH]2)n1-c1ccc(OCC)cc1 (stereo not drawn) here?
A: -4.56%

Q: Which AC50 [1] does the source give for CCOc1ccccc1N1CCN(C(=O)CNC(=O)c2sc3ccccc3c2Cl)CC1 here?
A: 0.58 µM [rising, single point]

Q: For CCCCNC(=O)N(O)C1N(/N=C/c2ccccc2F)C(=S)SC1(C)C (stereo not drawn), which cell number change is on record?
A: -10.2%

Q: And the AC50 [1]?
A: 0.092 µM [falling, full curve, poor fit]

Q: With CSCCC(NC(=O)c1ccc(Cl)cc1Cl)C(=O)OC(C)C(=O)NCc1ccco1 (stereo not drawn) as the compound, how does the AC50 [2] read?
A: 0.58 µM [falling, single point]

Q: With O=C(c1nc[nH]c1C(=O)N1CCN(c2ccccc2)CC1)N1CCN(c2ccccc2)CC1 as the compound, how does the cell number change read?
A: -42.9%

Q: What about the AC50 [2] of the same compound?
A: 0.184 µM [falling, full curve]

Q: For Cc1ccc(S(=O)(=O)c2nnn3c2nc(N2CCN(c4ccccn4)CC2)c2ccccc23)cc1C, which cell number change is on record?
A: -9.54%

Q: What about the AC50 [1] of the same compound?
A: 2.31 µM [rising, partial curve, poor fit]

Q: For O=C(NCCCn1ccnc1)Nc1ccc(Cl)c(Cl)c1, which cell number change is on record?
A: 7.3%

Q: What does the source list for CSc1ccccc1C(=O)NCCSc1ccc(C)cc1?
A: cell number change: -3.41%; AC50 [2]: 6.51 µM [falling, single point]; AC50 [1]: 18.4 µM [falling, single point]

Q: What does the source list for OC(Cn1cncn1)c1ccc(Cl)cc1Cl (stereo not drawn)?
A: cell number change: 5.09%; AC50 [1]: 0.411 µM [rising, full curve, poor fit]

Q: With CN1CCN(NC(=O)COc2cccc(C(F)(F)F)c2)CC1 as the compound, how does the cell number change read?
A: 10.9%

Q: What about the AC50 [2] of the same compound?
A: 0.82 µM [falling, full curve]

Q: What about the AC50 [1] of the same compound?
A: 0.651 µM [falling, partial curve]

Q: With CCCc1c(C)[nH]c2ccccc2c1=O as the compound, how does the cell number change read?
A: 62%

Q: What about the AC50 [2] of the same compound?
A: 29.1 µM [rising, single point]

Q: And the AC50 [1]?
A: 32.6 µM [falling, partial curve, poor fit]

Q: With N#C/C(=C\C=C\c1ccccc1)c1nc(-c2ccc(Cl)cc2)cs1 as the compound, how does the cell number change read?
A: 62.7%

Q: And the AC50 [2]?
A: 14.6 µM [rising, partial curve]

Q: With CCOCCc1nnc(NC(=O)c2cc(OC)c(OC)cc2[N+](=O)[O-])s1 as the compound, how does the cell number change read?
A: 40.8%

Q: What about the AC50 [2] of the same compound?
A: 29.1 µM [rising, single point]

Q: For Cn1ncc2c(NCc3ccccc3)ncnc21, which cell number change is on record?
A: 1.39% and 107%

Q: What about the AC50 [2] of the same compound?
A: 206 nM [rising, full curve, poor fit] and 29.1 µM [rising, single point]

Q: What about the AC50 [1] of the same compound?
A: 0.164 µM [falling, full curve, poor fit]

Q: With CCCC(=O)Nc1c2c(nn1-c1ccc(OC)cc1)CS(=O)(=O)C2 as the compound, how does the cell number change read?
A: 78.5%

Q: With COc1ccc(-n2nc3c(c2NC(=O)c2cc(Br)ccc2Cl)CS(=O)C3)cc1 (stereo not drawn) as the compound, how does the cell number change read?
A: 18.5%

Q: What about the AC50 [1] of the same compound?
A: 0.92 µM [rising, partial curve]

Q: Which cell number change does the source give for CCCC(=O)Nc1nc(C)c(-c2csc(Nc3ccc(Cl)cc3)n2)s1 here?
A: -50.9%

Q: What about the AC50 [2] of the same compound?
A: 20.6 µM [falling, partial curve, poor fit]

Q: And the AC50 [1]?
A: 20.6 µM [falling, partial curve]

Q: With COc1ccc(CCNC(=O)c2csc3c2CCCC3)cc1 as the compound, how does the cell number change read?
A: -2.73%

Q: For Cc1ccc(NC(=O)c2ccncc2)cc1[N+](=O)[O-], which cell number change is on record?
A: 14%

Q: What about the AC50 [1] of the same compound?
A: 0.731 µM [rising, partial curve, poor fit]

Q: Which cell number change does the source give for COc1ccc(N(C(=O)c2cccnc2)S(=O)(=O)c2ccc3c4c(cccc24)C(=O)N3C)cc1 here?
A: 4.23%

Q: And the AC50 [1]?
A: 0.517 µM [rising, full curve, poor fit]

Q: Which cell number change does the source give for NCCCC[C@H]1CN=C(N)N1CCC12CC3CC(CC(C3)C1)C2 here?
A: -5.28%

Q: What about the AC50 [1] of the same compound?
A: 0.00461 µM [falling, full curve, poor fit]

Q: For O=c1ccc(NS(=O)(=O)c2ccc(Cl)cc2)cn1Cc1ccc(Cl)c(Cl)c1, which cell number change is on record?
A: -14%

Q: And the AC50 [1]?
A: 2.59 µM [falling, partial curve]

Q: Which results are given for CCOC(=O)C(=Nc1ccccc1)NO?
A: cell number change: -33.1%; AC50 [2]: 0.291 µM [falling, full curve]; AC50 [1]: 1.3 µM [falling, full curve]

Q: Which cell number change does the source give for CC1CCN(C(=O)C(Cc2ccccc2)n2cccc2)CC1 (stereo not drawn) here?
A: 18.8%

Q: And the AC50 [1]?
A: 2.06 µM [falling, partial curve]

Q: With Cc1ccc(/C=N/NC(=O)c2cccs2)o1 as the compound, how does the cell number change read?
A: 75.6%

Q: And the AC50 [2]?
A: 18.4 µM [rising, single point]

Q: And the AC50 [1]?
A: 0.651 µM [rising, partial curve]

Q: Which AC50 [2] does the source give for O=C(COc1cccc(Cl)c1)Nc1ccc2c(c1)CCC2 here?
A: 6.51 µM [rising, single point]

Q: For O=C(Nc1ccc(-c2n[nH]c(=S)o2)cc1)c1ccccc1Cl, which cell number change is on record?
A: -13.5%

Q: What about the AC50 [1] of the same compound?
A: 11.6 µM [falling, partial curve, poor fit]

Q: Which cell number change does the source give for Cc1nn(-c2ccccc2)nc1C(=O)Nc1ccc2c(c1)OCCO2 here?
A: 3.41%

Q: What about the AC50 [1] of the same compound?
A: 0.00461 µM [rising, full curve, poor fit]

Q: For Cc1ccnc2nc(C(=O)Nc3nc4ccccc4s3)nn12, which cell number change is on record?
A: -20%

Q: What about the AC50 [1] of the same compound?
A: 16.4 µM [falling, partial curve]

Q: With CCOc1cc(/C=C2\CCCC(C(=O)C(F)(F)F)=C2O)ccc1O as the compound, how does the cell number change read?
A: -51%

Q: What about the AC50 [2] of the same compound?
A: 29.1 µM [falling, single point]

Q: And the AC50 [1]?
A: 16.4 µM [falling, partial curve]

Q: With Cc1ccc(C)c(OCC(O)CN2CCC(CN3C(=O)c4cccc5cccc(c45)C3=O)CC2)c1 (stereo not drawn) as the compound, how does the cell number change read?
A: 18.8%

Q: And the AC50 [1]?
A: 6.51 µM [falling, partial curve, poor fit]

Q: For CC(C)CCNC(=O)c1nnc(Cc2ccc(Cl)cc2)o1, which AC50 [2] is on record?
A: 0.651 µM [falling, full curve, poor fit]

Q: For O=C(Nc1cccc(OCC(=O)N2CCOCC2)c1)c1cccc(Cl)c1, which cell number change is on record?
A: -23.3%

Q: And the AC50 [1]?
A: 29.1 µM [rising, single point]

Q: With COc1ccc(OC)c(/C=N/c2oc(-c3ccco3)c(-c3ccco3)c2C#N)c1 as the compound, how does the cell number change read?
A: 5.78%

Q: What does the source list for COc1ccc(C(=O)NCC(O)COc2ccc(C(C)(C)C)cc2)cc1[N+](=O)[O-] (stereo not drawn)?
A: cell number change: -12.3%; AC50 [1]: 0.116 µM [falling, full curve, poor fit]

Q: Which results are given for Cc1ccccc1Nc1nc(N)nc(CSCc2c(C)noc2C)n1?
A: AC50 [2]: 0.103 µM [rising, partial curve, poor fit]; AC50 [1]: 0.0651 µM [rising, full curve]

Q: With COC(=O)c1sccc1NC(=O)c1ccc(OC)cc1OC as the compound, how does the cell number change read?
A: -50%

Q: And the AC50 [2]?
A: 18.4 µM [falling, single point]

Q: And the AC50 [1]?
A: 6.51 µM [rising, single point]

Q: What does the source list for Nc1nnc(SCCOc2ccc(Br)cc2)s1?
A: cell number change: 12.6%; AC50 [1]: 2.06 µM [rising, partial curve]

Q: Which results are given for CCOC(=O)C1CCCN(/C=C2\SC(=S)N(CC)C2=O)C1 (stereo not drawn)?
A: cell number change: -28.7%; AC50 [2]: 0.164 µM [falling, full curve, poor fit]

Q: Which cell number change does the source give for CC1(C)Oc2ccc3ccc(=O)oc3c2/C(=C/Nc2ccccc2)C1=O here?
A: 19.4%

Q: What about the AC50 [2] of the same compound?
A: 6.51 µM [rising, single point]

Q: What about the AC50 [1] of the same compound?
A: 6.51 µM [rising, single point]

Q: What does the source list for Cc1ccc(C)c(Cn2cnc3c(nnn3-c3ccc(F)cc3)c2=O)c1?
A: cell number change: 4.21%; AC50 [2]: 1.84 µM [rising, partial curve]; AC50 [1]: 1.03 µM [rising, full curve]

Q: For O=C(O)c1ccc(NC(=S)Nc2ccccc2)cc1, which AC50 [1] is on record?
A: 6.51 µM [rising, single point]
